Substitutions are numbered along the chain they refer to. These are yes or no findings as the source states them, for the method shown. Some results given as binding are weak or reduced against the parent protein; the word gives no strength.

The chains are these.
T1: C53 subunit of RNA polymerase III (S. cerevisiae) (UniProt P25441)
T1 sequence: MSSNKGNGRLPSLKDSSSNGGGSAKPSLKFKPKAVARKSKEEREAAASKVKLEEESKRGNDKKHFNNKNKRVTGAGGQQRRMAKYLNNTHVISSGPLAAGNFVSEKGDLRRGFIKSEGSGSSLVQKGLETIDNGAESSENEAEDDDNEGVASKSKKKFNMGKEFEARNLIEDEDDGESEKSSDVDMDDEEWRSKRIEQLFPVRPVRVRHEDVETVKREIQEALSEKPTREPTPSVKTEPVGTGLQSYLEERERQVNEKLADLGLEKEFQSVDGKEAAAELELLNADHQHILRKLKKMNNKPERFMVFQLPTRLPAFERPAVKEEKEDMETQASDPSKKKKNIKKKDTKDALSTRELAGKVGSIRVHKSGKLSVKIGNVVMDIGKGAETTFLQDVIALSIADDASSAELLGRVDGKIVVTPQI

B1: C37^D (deletion of amino acids 226–230) (protein, UniProt P36121)
chain: MSIDNKLFVTEEDEEDRTQDRADVEDESNDIDMIADENGTNSAIANEQEEKSEEVKAEDDTGEEEEDDPVIEEFPLKISGEEESLHVFQYANRPRLVGRKPAEHPFISAARYKPKSHLWEIDIPLDEQAFYNKDKAESEWNGVNVQTLKGVGVENNGQYAAFVKDMQVYLVPIERVAQLKPFFKYIDDANVTRKQEDARRNPNPSSQRAQVVTMSVKSVNDPSQNLLAHKVADEEANIELTWAEGTFEQFKDTIVKEAEDKTLVALEKQEDYIDNLV
B2: C37 subunit of RNA polymerase III (protein, UniProt P36121 1-282)
chain: MSIDNKLFVTEEDEEDRTQDRADVEDESNDIDMIADENGTNSAIANEQEEKSEEVKAEDDTGEEEEDDPVIEEFPLKISGEEESLHVFQYANRPRLVGRKPAEHPFISAARYKPKSHLWEIDIPLDEQAFYNKDKAESEWNGVNVQTLKGVGVENNGQYAAFVKDMQVYLVPIERVAQLKPFFKYIDDANVTRKQEDARRNPNPSSQRAQVVTMSVKSVNDPSQNRLTGSLLAHKVADEEANIELTWAEGTFEQFKDTIVKEAEDKTLVALEKQEDYIDNLV
B3: C37* (alanine substitutions at positions 226–230) (protein, UniProt P36121 1-282)
chain: B2 chain with R226A, L227A, T228A, G229A, S230A

This assay concerns the target T1, C53 subunit of RNA polymerase III (S. cerevisiae). As to the kind of experiment: co-purification of co-expressed subunits (Ni-NTA, then ion exchange); both subunits co-expressed in E. coli Rosetta (DE3) pLysS; His6-C53 held on Ni-NTA, complexes eluted with 300 mM imidazole in 20 mM K-HEPES pH 8, 200 mM NaCl; after TEV cleavage SP Sepharose and Q-Sepharose (eluted with 300 mM NaCl).
As to B1, the binding result was “binds”.

Turning to B2, the binding result is on record as “binds”.

Take B3: the binding result is on record as “binds”.

(Values after publication PMC8501072.)
